# Test: Drug concentration in liquid formulations (liquid chromatography / HPLC)
# Assay type: physicochemical
# Conditions: 4 mg/ml formulation with PEG 200, ethanol
# Description: In accordance with exemplary embodiments of the present invention, a series of liquid formulations were developed for the local or regional delivery of water insoluble compounds such as sirolimus and its analogs, including CCI-779, ABT-578 and everolimus, through weeping balloons and catheter injection needles. […] These liquid formulations increase the apparent solubility of the pharmacologically active but water insoluble compounds by two to four orders of magnitude as compared to the solubility limits of the compounds in water. These liquid formulations rely on the use of a very small amount of organic solvents such as Ethanol (typically less than two percent) and a larger amount of safe amphiphilic (of or relating to a molecule having a polar, water soluble group attached to a non-polar, water insoluble […]) excipients such as polyethylene glycol (PEG 200, PEG 400) and vitamin E TPGS to enhance the solubility of the compounds. These liquid formulations of highly water insoluble compounds are stable and readily flowable at room temperature. […]
# Table 8, shown below, summarizes the concentrations of the excipient, the co-solvents and the drug for four different liquid formulations in accordance with exemplary embodiments of the present invention. The concentrations of each constituent were determined by liquid chromatography and are presented as weight by volume figures. […]
compound,measurement,value
"CO[C@H]1C[C@@H]2CC[C@@H](C)[C@@](O)(O2)C(=O)C(=O)N2CCCC[C@H]2C(=O)O[C@H]([C@H](C)C[C@@H]2CC[C@@H](O)[C@H](OC)C2)CC(=O)[C@H](C)/C=C(\C)[C@@H](O)[C@@H](OC)C(=O)[C@H](C)C[C@H](C)/C=C/C=C/C=C/1C [Rapamycin, rapamycin]",sirolimus concentration relative to the solubility of sirolimus in water,four hundred to about one thousand
